Experimental data: US20230287096A1
These are yes or no findings as the source states them, for the method shown. Some binding calls cover weakened binding; strength is not graded here.

Molecular target: T1, FAM19A5 epitope fragment F5, conjugated to BSA (human)
T1 sequence (peptide, conjugated to BSA): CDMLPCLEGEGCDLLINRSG
Test: ELISA, BSA-conjugated peptide coated on plate

binding: binds
B1: Anti-FAM19A5 antibody 1-65 (antibody, V domains shown)
VH: AVTLDESGGGLQTPGGALSLVCKASGFTFSSYQMGWVRQAPGKGLEWVGVINKSGSDTSYGSAVKGRATISRDNGQSTVRLQLNNLRAEDTGTYFCAKGSASYITAATIDAWGHGTEVIVSS
VL: ALTQPSSVSANPGETVKITCSGGGSSGYGYGWYQQKSPSSAPLTVIYWNDKRPSDIPSRFSGSKSGSTHTLTITGVQAEDEAVYFCGNDDYSSDSGYVGVFGAGTTLTVL
